The results in this text go back to the supplement of paper PMC10849652.

The chains behind the UniProt entries cited, without tags or fusion partners. Where a name states a change or a piece, a line headed by the entry shows the natural chain unless it says otherwise.
UniProt Q5T447: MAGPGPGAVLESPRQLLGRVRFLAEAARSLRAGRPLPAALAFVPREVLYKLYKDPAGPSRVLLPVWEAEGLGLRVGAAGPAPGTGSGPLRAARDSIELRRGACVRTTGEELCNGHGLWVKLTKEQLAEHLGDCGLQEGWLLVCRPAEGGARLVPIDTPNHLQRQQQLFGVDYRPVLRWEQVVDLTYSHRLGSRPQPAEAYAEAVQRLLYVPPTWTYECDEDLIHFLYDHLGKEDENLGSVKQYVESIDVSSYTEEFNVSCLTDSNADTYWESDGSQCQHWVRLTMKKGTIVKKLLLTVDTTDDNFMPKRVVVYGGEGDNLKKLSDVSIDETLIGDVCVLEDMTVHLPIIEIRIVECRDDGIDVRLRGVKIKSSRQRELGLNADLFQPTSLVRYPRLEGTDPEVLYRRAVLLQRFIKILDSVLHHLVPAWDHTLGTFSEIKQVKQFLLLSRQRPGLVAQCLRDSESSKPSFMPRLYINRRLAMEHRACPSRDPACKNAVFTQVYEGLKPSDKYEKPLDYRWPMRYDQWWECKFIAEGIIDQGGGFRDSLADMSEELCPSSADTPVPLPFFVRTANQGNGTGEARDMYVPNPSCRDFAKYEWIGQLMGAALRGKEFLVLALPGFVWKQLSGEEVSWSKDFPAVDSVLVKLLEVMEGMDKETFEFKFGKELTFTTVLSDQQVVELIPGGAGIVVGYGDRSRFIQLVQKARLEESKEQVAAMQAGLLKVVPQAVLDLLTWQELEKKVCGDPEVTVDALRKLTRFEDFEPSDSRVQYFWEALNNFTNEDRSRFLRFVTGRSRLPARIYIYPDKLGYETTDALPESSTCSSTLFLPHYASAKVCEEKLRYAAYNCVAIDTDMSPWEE
UniProt Q53GQ0: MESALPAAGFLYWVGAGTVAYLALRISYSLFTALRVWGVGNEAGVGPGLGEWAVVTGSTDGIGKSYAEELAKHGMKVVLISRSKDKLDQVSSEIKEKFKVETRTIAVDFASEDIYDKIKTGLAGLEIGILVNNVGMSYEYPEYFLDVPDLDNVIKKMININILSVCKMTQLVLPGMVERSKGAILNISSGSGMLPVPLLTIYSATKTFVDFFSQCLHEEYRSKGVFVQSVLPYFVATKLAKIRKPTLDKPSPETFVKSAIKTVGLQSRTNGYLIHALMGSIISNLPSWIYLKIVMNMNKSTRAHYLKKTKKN
UniProt Q86YM7: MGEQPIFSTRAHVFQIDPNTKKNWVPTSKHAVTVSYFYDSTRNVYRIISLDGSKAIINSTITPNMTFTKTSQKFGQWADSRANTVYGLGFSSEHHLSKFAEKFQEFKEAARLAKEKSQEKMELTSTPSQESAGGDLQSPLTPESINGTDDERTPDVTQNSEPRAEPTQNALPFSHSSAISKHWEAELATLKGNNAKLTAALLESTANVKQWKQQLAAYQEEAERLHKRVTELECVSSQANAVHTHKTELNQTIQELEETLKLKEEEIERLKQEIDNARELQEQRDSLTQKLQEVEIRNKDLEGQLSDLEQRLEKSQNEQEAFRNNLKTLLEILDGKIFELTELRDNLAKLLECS
UniProt P17482: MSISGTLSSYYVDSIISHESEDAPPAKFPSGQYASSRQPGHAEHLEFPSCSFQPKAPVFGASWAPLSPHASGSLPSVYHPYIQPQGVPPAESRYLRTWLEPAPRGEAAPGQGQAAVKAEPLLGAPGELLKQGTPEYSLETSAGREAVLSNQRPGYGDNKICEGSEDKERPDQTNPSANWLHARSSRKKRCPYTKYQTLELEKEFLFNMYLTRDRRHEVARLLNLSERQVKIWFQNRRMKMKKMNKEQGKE
UniProt O75506: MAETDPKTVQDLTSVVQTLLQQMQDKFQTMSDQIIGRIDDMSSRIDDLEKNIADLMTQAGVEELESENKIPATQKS
UniProt Q9NWY4: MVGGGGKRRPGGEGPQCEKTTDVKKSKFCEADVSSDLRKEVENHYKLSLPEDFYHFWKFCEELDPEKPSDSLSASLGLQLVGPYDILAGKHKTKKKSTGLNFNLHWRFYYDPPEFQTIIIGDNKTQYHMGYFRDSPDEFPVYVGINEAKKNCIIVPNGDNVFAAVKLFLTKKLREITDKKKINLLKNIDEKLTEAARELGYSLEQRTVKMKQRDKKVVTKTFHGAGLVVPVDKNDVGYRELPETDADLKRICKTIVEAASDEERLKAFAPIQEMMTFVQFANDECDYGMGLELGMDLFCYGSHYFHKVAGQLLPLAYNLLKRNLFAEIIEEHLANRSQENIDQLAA
UniProt P31943: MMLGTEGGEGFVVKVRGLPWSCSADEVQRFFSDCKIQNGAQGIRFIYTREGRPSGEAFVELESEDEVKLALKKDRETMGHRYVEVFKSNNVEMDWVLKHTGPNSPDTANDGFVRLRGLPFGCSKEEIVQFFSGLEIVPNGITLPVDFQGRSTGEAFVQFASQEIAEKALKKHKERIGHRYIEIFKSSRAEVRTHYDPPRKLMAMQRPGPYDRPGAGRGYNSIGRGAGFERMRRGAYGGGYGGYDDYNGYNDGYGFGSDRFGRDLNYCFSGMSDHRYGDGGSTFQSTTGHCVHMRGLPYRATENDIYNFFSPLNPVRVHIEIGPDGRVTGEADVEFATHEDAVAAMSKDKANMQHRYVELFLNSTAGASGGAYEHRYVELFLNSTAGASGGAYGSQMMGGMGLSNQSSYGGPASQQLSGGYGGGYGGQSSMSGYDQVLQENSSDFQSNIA
UniProt Q9UPZ3: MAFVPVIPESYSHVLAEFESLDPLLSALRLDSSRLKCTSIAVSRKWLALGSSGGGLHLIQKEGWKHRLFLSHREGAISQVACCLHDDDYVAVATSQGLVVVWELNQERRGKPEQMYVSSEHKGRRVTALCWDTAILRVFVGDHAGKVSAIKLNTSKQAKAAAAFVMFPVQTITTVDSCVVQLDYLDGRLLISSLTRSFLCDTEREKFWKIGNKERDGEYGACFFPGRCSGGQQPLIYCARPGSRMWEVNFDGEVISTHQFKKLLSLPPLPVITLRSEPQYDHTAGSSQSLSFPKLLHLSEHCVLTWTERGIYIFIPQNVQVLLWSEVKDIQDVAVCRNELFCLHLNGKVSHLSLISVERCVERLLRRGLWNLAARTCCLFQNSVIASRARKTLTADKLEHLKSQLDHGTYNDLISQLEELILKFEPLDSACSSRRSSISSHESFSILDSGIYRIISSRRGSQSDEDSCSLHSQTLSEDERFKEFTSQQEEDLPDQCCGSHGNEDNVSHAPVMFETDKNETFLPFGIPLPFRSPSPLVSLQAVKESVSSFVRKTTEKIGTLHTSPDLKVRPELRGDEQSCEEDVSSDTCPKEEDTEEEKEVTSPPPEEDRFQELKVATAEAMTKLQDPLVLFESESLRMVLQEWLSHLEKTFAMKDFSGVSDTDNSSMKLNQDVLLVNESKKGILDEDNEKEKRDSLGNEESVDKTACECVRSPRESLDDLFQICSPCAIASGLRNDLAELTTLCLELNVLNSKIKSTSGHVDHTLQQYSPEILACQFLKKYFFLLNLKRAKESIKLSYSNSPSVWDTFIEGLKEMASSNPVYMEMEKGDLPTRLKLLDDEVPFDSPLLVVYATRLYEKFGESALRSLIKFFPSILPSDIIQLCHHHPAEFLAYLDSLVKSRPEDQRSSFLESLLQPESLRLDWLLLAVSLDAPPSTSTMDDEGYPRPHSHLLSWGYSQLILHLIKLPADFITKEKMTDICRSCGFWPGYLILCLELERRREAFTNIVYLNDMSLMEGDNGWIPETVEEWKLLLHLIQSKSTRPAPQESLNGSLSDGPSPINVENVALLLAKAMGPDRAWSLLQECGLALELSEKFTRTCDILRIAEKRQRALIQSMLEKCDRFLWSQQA
UniProt P06865: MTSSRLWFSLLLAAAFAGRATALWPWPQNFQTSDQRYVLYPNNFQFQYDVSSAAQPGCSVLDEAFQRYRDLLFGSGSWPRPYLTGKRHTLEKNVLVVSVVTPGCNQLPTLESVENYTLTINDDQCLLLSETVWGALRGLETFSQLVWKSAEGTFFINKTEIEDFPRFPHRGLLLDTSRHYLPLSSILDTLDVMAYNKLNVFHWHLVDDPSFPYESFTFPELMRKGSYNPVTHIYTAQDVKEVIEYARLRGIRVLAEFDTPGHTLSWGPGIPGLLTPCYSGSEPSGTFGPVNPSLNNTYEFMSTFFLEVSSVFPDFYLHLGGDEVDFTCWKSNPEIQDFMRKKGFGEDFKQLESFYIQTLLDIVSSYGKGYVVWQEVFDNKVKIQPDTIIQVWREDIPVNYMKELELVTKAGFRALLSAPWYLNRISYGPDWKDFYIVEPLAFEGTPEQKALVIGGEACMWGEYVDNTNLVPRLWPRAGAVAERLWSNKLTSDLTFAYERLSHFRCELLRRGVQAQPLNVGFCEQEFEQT
UniProt P22626: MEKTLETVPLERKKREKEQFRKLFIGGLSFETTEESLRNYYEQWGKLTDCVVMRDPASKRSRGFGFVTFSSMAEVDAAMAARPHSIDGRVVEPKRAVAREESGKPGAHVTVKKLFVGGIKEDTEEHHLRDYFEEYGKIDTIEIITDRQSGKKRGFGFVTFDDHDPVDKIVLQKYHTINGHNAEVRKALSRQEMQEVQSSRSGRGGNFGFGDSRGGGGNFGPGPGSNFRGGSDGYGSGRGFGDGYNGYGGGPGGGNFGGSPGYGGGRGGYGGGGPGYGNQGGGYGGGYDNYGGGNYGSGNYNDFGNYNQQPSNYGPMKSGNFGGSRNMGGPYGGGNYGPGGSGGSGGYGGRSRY
UniProt O14979: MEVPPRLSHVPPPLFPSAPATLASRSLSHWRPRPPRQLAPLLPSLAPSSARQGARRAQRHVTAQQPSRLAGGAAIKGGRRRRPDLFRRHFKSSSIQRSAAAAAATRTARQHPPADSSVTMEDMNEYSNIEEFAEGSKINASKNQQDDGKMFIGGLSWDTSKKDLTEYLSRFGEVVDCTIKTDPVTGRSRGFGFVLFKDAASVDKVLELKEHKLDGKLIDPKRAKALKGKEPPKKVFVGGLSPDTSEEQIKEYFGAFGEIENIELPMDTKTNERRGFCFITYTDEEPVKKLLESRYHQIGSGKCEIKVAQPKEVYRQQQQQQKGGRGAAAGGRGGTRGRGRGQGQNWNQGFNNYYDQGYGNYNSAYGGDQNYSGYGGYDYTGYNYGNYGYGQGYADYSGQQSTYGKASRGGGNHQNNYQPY
UniProt Q9NRV9: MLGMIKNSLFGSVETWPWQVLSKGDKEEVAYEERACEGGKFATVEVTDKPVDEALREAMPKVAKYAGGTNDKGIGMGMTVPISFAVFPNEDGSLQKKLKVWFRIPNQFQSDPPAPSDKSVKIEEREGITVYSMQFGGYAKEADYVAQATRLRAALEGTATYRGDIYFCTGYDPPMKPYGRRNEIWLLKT
UniProt P30519: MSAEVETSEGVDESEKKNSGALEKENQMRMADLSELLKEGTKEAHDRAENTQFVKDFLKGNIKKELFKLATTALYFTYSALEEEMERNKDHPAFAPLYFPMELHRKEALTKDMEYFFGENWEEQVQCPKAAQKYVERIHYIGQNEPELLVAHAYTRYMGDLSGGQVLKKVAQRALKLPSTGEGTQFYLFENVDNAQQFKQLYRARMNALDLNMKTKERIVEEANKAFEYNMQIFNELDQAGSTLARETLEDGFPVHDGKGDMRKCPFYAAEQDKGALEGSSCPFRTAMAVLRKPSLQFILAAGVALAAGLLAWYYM
UniProt Q15011: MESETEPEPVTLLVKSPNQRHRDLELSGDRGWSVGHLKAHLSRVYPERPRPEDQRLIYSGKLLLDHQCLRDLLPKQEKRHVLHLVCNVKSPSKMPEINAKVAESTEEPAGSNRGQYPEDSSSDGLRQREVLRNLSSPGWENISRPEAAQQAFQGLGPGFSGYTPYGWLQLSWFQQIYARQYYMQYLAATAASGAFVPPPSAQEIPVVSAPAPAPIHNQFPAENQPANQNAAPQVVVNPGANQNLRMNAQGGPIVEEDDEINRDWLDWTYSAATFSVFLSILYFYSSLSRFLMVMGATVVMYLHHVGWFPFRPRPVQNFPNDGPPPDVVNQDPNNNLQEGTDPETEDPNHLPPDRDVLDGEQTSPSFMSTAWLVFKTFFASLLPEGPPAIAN
UniProt Q6DN03, whole entry, looked up: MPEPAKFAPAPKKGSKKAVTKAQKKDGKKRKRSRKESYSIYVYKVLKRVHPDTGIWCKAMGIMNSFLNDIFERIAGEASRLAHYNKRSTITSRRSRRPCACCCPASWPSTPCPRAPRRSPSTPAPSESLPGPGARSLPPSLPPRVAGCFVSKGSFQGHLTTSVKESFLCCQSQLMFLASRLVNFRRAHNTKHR
UniProt Q13151: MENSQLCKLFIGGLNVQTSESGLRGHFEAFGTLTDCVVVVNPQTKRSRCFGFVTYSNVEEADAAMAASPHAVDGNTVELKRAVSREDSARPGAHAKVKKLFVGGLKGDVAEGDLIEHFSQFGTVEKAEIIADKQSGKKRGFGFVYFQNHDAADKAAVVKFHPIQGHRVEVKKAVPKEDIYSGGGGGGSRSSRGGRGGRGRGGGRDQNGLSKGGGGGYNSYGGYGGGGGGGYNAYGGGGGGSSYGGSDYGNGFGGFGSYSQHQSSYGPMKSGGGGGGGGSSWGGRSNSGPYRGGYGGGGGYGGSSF

This is one part of the list.

Compound in the test: CN1CCC(CNc2ccc3ncc(-c4cccc(OC(F)(F)F)c4)n3n2)CC1
As to the kind of experiment: log2 fold change, soluble protein after heating vs DMSO (PISA); higher = thermal stabilisation; K562 lysate, 10 uM; active = over 0.2 and 3.5 SD of the protein, either way, in both replicates (recomputed). An outline of the steps:
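Following dounce homogenisation of K562 pellets in PBS pH 7.4 with 1 mM MgCl2, crude extract at 1 mg/mL protein was incubated for 30 min with 10 μM compound. Aliquots were then heated for 3 min over 48°C-58°C and pooled, NP-40 was added to 0.5% at 4°C, and soluble protein was recovered as the supernatant at 21,000xg for 90 min. Channel-sum-equalised TMTpro 16plex LC-MS/MS quantified this protein. Each value, from duplicates, is a log-two fold change in thermal stability relative to solvent controls.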
Regarding HECTD3 (UniProt Q5T447), the log2 fold change is inactive: -0.027.
Consider HM13 isoform 2 (UniProt Q8TCT9), for which the log2 fold change was inactive: 0.022.
Consider HSD17B12 (UniProt Q53GQ0), for which the log2 fold change was inactive: -0.107.
In the case of HLCS (UniProt P50747), the log2 fold change was inactive: -0.041.
Under HEATR6 (UniProt Q6AI08) stands inactive: -0.008; under HOMER1 (UniProt Q86YM7), inactive: -0.038.
With HOXB9 (UniProt P17482), the log2 fold change was inactive: 0.01.
Under HSBP1 (UniProt O75506) stands inactive: -0.488; under HPF1 (UniProt Q9NWY4), inactive: 0.
Regarding HNRNPH1 (UniProt P31943), the log2 fold change is inactive: -0.028.
Under HPS5 (UniProt Q9UPZ3) stands inactive: -0.074; under HEXA (UniProt P06865), inactive: 0.024; under HNRNPA2B1 (UniProt P22626), inactive: 0.021.
Turning to HNRNPDL (UniProt O14979), the log2 fold change was inactive: 0.018.
In the case of HSF2 (UniProt Q03933) it was inactive: 0.193; in that of HEBP1 (UniProt Q9NRV9), inactive: 0.037.
HIST2H2BF isoform 2 (UniProt Q5QNW6): the log2 fold change was inactive: 0.004.
In the case of HK1 isoform 2 (UniProt P19367) it was inactive: -0.013; in that of HMOX2 (UniProt P30519), inactive: -0.01; in that of HERPUD1 (UniProt Q15011), inactive: -0.001.
In the case of HEMGN (UniProt Q9BXL5) it was inactive: -0.063; in that of HIST2H2BC (UniProt Q6DN03), inactive: -0.024; in that of HNRNPA0 (UniProt Q13151), inactive: -0.086.
